Experimental data taken from PMC10163288.
The list shows a part of the results.

B1: il2ra_site1_3nfp_normal_mot_HHH_b1_01731_af2_000000028_0001_1_17_H_._aa6083f578daa685d2bbf802523f4e6a_0001_af2_0001_0000600023_0000001_0 (protein)
chain: SEVEEIAEKAEELADDYDIRQVLKILLELYKRIGDPYAEELLQRLLELLEEGDPEEAKKLVKKFI
B2: il2ra_site2_2erj_sap_18_mot_0ec3dbe5a60479548ca220575d6efbeb_0001_000000122_0001_35_49_H_._09e7cb7e633bb54c4420ff763e5edef5_0001_0001_0000300039_0000001_1_0001 (protein)
chain: SPEYEEILREAEEIVKEAKKNNDLHKVFEALNLVMHAFTKFLDDEEAEEEIKRVLEEIWREVHKS
B3: il2ra_site2_2erj_sap_22_mot_HHH_b1_06697_000000025_0001_41_54_H_._HHH_b2_07218_0001_0003100114_0000001_0_0001 (protein)
chain: SSSSEEDLRFTYEVANRLTHLISEGNKEEAEELLEEARRQLEEAGDEQAVEFLEEVVENLASSSS
B4: il2ra_site2_3nfp_normal_mot_HHH_b1_03851_000000147_0001_21_38_H_._HHH_b1_04525_0001_0000500031_0000001_0 (protein)
chain: SSSSDEEREEARRLFEELQELLEENDRHAVFEVLAELFELAARTGDEEAARLVLEIYAQLRSSSS
B5: il2ra_site2_3nfp_normal_mot_HHH_b1_03223_af2_000000037_0001_1_19_H_._44c1d34e7de0649e2bc3bb7207530e70_0001_0001_0000100005_0000001_0 (protein)
chain: SERERLLELAWELRNPEVFILISLVIELEERGDPEAAKEVEEVAEELLRGEIPPEEVQKIAAKLD
B6: il2ra_site2_3nfp_normal_mot_cdc2c7e6ec3782e52408388447766025_0001_000000024_0001_37_50_H_._HHH_b1_02097_0001_0000200004_0000001_0 (protein)
chain: SSSSDLFEIAELALEADELDREGNPEEAERVLEEALKLAEEAGNEWLEEYIRARLELIRRSSSSS
B7: il2ra_site2_2erj_sap_12_mot_HHH_b1_00376_000000139_0001_38_52_H_._HHH_b1_01250_0001_0000300012_0000001_0_0001 (protein)
chain: SSSSDWLHELYELAVELLHLSARRDKEEFERVYEEIRRLVEETNSESAKRILEHIQRLFEGSSSS
B8: il2ra_site2_2erj_normal_mot_HHH_b2_02949_000000065_0001_1_20_H_._HHH_b1_04625_0001_0000100006_0000001_0 (protein)
chain: SSSSDEELRFAFEALSRLMHLISNGNPEEAEKLVKEAREILEELGNPELAENLEEHFEDLLSSSS
B9: il2ra_site2_3nfp_normal_mot_HHH_b1_07556_000000077_0001_42_55_H_._HHH_b1_05931_0001_0000200019_0000001_0 (protein)
chain: SSSSDVKEEVERLLEEVRELLEEGNPEEAREVLAEAVHLAYERGDSEAFFLVAEFIFEIEQSSSS
B10: il2ra_site2_3nfp_normal_mot_HHH_b1_04762_000000120_0001_42_54_H_._HHH_b2_07046_0001_0000200026_0000001_0 (protein)
chain: SSSSDAEEYLRAALLLLREAVERGDEEQAERHAKILIQAAEAIGDEEVLKEAERLLEELNSSSSS
B11: il2ra_site1_2b5i_sap_22_mot_a1647c6a1bc1795bd61f8ac90a0f45d0_0001_1_000000140_0001_1_13_H_._HHH_b1_03195_0001_0000200020_0000001_0_0001 (protein)
chain: SSSDHNELARFATEVVWRLRWELGLSNEQARELNQRASELVWEGVSPEEIEEILRELAEELSSSS
B12: il2ra_site1_1z92_sap_7_mot_bc38a9f498cb1f18218c93d69bbf9b39_0001_af2_000000137_0001_15_32_H_._1af3d26173322421766602107bf007ea_0001_af2_0001_0000400003_0000001_ … (protein)
chain: SIKEDFEQAKKNGLSPEKAAYVLIKALAIMERVPPEEAIEILLRAAREKGDEELFEVVQELAEDP
B13: il2ra_site1_2b5i_normal_mot_HHH_b1_01949_af2_000000166_0001_1_19_H_._HHH_b2_06657_af2_0001_0000100001_0000001_0_af2pred_0001_af2pred (protein)
chain: SSSSDEEFEEVTELYRRASELFRRGNKEEARKLLEEALELAEEAGDEVAKEDLRRLLELLESSSS
B14: il2ra_site2_3nfp_normal_mot_HHH_b1_02297_000000279_0001_41_58_H_._HHH_b2_02322_0001_0000200006_0000001_0 (protein)
chain: SSSSSSSDEEEVEELLEEAKRIDDEFRFFAVLNEAAFIAYQSDNEELERLVKHVTQEFFSSSSSS
B15: il2ra_site1_2b5i_sap_9_mot_9a773f325bc24391a11cd301277c1e75_0001_1_000000041_0001_1_15_H_._ems_3hM_3702_0001_0000100013_0000001_0_0001_af2pred_0001_af2pred_1 (protein)
chain: SSSSSERVVELIEEANELFKNGDPEEAEKVAEEALRLAEEEGSPSLERFVRVALKILRESRSSSS
B16: il2ra_site2_2erj_normal_mot_HHH_b1_03107_000000098_0001_39_52_H_._HHH_b2_04766_0001_0000400028_0000001_1 (protein)
chain: SSSSSREAWELAARASARALELFKRGNPEEARELLEEALEEVRRLGNEYALRYLEFARRDLSSSS
B17: il2ra_site1_2b5i_normal_mot_HHH_b2_04910_000000118_0001_1_19_H_._HHH_b1_01115_0001_0000100003_0000001_0 (protein)
chain: SSSSSDETKRAAELFREADELDKNGNPEEAQKVLEEALEIAEEGGSPLARMIESALEQTRSSSSS
B18: il2ra_site2_3nfp_normal_mot_HHH_b2_08245_000000023_0001_41_55_H_._HHH_b1_02678_0001_0000100007_0000001_0 (protein)
chain: SSSSDREERVRELLKEAEEALEKGNPEEAKELLQEATHLAYEARDSELFFLIAELLFKVEHSSSS
B19: il2ra_site2_3nfp_normal_mot_HHH_b1_00660_af2_000000090_0001_40_57_H_._HHH_b2_01268_0001_0000100006_0000001_0 (protein)
chain: SSSSSDEEEEEVEELLEEAKRIPDPEERRQVLSRAFAIAAEANDFELFALVSEVREKLQSSSSSS

Each binder was assayed against il2ra, P01589 (assay: yeast display titration).

Apparent Kd, inactive:
B1 no binding seen
B2 no binding seen
B3 no binding seen
B4 no binding seen
B5 no binding seen
B6 no binding seen
B7 no binding seen
B8 no binding seen
B9 no binding seen
B10 no binding seen
B11 no binding seen
B12 no binding seen
B13 no binding seen
B14 no binding seen
B15 no binding seen
B16 > 296 nM
B17 no binding seen
B18 no binding seen
B19 no binding seen

2 entries picked at random from those above, as already listed:
Apparent Kd, inactive:
B15 no binding seen
B4 no binding seen
